From the supplement of paper PMC6411743
± gives the standard deviation of the averaged measurements. Some of the results follow.

Protein sequences, listed by entry. Tags and fused reporters are not part of them. Lines headed by an entry give the natural chain unless they say otherwise; changes in a name come on top.
UniProt Q9Y237, whole entry: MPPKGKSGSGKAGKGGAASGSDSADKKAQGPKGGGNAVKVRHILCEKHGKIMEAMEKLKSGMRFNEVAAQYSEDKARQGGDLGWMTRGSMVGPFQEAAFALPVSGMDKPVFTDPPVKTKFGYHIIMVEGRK
UniProt Q9Y5S1: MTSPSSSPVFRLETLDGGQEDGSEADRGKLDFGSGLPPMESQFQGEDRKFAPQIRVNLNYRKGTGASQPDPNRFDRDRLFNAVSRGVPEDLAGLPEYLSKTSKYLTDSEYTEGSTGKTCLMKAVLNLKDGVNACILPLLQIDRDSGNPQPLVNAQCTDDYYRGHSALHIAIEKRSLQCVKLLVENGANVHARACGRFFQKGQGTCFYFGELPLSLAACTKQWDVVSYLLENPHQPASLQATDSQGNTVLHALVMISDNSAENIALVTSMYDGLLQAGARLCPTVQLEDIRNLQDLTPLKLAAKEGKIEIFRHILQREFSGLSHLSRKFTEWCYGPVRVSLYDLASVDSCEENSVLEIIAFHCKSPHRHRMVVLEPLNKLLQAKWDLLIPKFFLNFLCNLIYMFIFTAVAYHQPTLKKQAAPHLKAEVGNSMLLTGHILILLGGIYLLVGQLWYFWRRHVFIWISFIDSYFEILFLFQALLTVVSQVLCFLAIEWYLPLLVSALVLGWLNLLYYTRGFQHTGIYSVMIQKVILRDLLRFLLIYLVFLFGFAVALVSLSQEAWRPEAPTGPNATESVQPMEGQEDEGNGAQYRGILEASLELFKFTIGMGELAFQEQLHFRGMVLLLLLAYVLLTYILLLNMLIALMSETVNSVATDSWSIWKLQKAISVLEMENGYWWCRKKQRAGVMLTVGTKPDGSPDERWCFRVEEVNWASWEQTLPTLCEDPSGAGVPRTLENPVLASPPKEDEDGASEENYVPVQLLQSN
UniProt Q9UMZ2: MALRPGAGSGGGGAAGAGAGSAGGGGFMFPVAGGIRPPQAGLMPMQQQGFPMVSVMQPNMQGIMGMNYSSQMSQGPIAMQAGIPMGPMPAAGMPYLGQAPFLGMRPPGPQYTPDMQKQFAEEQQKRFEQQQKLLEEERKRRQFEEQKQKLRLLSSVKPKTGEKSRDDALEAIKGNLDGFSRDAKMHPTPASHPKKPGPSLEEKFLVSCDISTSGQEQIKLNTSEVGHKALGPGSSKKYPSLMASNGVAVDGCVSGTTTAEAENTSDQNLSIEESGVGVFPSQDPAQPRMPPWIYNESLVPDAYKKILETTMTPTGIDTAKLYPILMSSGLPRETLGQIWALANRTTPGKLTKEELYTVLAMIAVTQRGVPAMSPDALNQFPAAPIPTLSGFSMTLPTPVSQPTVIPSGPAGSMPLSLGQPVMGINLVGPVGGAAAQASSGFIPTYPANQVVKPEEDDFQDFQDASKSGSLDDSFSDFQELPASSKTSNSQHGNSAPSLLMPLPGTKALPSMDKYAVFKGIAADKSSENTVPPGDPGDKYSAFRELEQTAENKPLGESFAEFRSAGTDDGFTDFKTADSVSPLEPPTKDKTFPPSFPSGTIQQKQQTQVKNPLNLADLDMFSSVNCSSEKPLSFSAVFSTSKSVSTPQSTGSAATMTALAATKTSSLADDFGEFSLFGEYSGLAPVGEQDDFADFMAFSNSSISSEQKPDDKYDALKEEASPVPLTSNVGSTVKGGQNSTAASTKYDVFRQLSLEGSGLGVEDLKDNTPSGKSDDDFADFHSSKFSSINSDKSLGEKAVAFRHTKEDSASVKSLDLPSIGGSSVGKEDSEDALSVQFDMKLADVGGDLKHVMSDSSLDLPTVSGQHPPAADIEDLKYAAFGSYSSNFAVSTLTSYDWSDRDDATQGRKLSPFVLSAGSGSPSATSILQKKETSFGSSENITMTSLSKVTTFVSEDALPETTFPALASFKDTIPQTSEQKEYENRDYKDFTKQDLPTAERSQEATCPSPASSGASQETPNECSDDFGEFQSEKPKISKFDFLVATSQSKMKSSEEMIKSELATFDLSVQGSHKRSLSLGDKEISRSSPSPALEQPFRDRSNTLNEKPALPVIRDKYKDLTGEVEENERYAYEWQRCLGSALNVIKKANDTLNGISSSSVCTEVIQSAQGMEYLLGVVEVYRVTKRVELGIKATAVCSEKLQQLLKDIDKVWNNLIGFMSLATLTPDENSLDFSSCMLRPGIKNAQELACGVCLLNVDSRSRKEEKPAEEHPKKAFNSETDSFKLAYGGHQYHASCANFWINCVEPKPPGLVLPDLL
UniProt Q9Y617: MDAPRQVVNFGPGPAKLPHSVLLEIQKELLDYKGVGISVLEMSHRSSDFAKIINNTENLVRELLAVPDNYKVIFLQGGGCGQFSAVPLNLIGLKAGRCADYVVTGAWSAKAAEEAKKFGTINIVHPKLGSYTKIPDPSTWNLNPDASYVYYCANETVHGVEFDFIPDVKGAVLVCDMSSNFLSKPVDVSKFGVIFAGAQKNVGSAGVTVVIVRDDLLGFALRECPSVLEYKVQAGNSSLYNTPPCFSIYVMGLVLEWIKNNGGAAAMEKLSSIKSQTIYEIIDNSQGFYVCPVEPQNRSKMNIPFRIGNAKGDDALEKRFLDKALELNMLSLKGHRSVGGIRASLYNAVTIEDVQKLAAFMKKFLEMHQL
UniProt Q9Y2Y0: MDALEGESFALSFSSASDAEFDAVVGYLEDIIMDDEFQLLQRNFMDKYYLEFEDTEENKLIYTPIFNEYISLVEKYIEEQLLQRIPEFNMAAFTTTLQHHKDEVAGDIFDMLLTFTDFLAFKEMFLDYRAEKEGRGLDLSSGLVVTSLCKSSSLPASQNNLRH
UniProt Q9Y657, whole entry: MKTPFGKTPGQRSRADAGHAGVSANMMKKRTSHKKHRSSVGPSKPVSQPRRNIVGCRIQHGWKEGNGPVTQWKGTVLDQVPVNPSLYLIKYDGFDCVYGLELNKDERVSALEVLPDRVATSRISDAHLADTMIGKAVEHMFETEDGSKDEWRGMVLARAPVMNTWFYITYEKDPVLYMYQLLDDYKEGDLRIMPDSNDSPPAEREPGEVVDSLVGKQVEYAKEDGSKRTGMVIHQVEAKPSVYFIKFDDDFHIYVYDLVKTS
UniProt Q9Y3C8: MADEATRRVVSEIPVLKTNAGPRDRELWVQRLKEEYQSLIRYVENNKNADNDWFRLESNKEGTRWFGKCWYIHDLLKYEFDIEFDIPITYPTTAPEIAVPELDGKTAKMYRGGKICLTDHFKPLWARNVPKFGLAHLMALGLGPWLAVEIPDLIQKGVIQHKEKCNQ
UniProt Q9Y6C9: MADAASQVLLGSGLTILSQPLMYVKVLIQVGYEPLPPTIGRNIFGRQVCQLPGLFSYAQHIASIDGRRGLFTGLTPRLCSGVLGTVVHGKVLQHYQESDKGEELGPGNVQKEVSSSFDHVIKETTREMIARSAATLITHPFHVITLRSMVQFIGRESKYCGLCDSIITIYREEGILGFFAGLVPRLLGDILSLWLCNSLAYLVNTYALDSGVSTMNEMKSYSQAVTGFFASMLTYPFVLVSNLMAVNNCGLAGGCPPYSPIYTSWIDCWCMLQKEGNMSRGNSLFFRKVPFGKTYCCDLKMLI
UniProt Q9UPQ9, whole entry: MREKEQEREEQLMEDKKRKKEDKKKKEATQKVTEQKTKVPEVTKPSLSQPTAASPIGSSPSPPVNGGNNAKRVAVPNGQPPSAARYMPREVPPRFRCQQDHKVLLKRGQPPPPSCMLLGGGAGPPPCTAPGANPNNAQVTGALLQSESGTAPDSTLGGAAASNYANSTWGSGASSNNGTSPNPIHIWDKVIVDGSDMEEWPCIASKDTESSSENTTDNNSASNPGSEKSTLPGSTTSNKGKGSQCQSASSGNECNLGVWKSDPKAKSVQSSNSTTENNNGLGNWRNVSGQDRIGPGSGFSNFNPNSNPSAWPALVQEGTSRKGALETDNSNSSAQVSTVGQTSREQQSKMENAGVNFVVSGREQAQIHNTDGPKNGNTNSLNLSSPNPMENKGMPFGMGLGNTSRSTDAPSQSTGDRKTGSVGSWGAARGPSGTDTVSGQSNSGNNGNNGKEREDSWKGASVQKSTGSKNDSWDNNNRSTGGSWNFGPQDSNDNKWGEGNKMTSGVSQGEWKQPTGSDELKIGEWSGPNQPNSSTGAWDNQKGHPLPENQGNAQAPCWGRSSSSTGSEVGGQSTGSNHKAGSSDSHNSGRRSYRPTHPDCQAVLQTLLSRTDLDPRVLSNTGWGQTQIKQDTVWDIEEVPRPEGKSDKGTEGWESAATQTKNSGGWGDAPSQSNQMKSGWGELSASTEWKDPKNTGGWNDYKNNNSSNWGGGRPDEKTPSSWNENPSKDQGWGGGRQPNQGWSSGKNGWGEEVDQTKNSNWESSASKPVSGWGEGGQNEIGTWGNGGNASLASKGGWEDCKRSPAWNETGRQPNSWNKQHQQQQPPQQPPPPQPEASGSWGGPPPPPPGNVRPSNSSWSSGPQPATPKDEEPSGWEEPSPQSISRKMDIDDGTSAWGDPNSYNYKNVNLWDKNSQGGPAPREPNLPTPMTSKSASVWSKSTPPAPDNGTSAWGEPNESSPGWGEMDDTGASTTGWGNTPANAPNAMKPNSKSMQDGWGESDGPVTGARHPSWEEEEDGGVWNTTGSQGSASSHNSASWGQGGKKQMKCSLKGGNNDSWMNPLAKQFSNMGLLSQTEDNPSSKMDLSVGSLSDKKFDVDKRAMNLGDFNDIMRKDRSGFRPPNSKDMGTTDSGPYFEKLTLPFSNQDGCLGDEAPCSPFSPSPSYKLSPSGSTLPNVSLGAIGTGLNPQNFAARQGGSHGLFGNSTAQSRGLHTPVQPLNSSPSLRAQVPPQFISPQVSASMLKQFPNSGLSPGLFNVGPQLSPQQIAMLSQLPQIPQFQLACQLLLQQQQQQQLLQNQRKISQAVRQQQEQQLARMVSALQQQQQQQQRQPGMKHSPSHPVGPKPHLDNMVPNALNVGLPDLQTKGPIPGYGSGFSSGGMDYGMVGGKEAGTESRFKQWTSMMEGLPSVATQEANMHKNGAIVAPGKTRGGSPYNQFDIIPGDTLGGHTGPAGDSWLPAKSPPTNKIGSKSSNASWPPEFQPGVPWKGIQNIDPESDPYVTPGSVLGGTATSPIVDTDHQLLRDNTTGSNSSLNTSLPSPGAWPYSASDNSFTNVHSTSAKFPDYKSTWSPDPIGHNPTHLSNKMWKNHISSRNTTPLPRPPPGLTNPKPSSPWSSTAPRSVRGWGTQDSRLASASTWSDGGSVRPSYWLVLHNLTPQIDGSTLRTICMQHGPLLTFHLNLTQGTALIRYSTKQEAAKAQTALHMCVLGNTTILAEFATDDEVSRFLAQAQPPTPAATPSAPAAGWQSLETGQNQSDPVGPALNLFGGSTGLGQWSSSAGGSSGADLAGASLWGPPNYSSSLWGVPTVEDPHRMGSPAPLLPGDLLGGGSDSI
UniProt Q9Y680: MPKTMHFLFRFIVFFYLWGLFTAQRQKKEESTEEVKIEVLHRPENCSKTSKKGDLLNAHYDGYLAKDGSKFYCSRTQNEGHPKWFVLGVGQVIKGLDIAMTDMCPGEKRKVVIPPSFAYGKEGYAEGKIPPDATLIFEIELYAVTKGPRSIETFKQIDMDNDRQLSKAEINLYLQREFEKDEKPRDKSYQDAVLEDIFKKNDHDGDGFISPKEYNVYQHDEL
UniProt Q9UQ13: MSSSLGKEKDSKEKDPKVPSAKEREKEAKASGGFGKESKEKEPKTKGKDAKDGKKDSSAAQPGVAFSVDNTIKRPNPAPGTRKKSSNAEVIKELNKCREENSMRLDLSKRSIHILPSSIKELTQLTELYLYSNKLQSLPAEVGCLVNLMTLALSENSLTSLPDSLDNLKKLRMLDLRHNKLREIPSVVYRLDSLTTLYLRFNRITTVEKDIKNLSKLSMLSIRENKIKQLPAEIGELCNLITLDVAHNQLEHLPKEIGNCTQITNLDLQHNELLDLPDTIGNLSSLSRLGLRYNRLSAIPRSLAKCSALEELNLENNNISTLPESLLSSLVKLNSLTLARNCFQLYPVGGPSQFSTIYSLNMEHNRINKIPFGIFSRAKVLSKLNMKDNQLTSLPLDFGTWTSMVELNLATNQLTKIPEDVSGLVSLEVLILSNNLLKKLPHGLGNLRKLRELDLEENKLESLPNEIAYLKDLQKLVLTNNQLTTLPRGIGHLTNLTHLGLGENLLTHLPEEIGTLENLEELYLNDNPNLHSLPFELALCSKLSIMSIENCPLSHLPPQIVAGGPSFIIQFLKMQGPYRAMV
UniProt Q9Y3C1: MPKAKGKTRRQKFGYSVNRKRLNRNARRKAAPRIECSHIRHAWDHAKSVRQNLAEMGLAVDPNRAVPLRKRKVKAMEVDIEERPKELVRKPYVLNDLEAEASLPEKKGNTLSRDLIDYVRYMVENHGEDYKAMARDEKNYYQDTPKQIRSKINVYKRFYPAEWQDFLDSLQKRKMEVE

Compound: Nc1nc2c(ncn2[C@@H]2O[C@H](COP(=O)(O)OP(=O)(O)OP(=O)(O)O)[C@@H](O)[C@H]2O)c(=O)[nH]1 [guanosine triphosphate]
Assay: NP40-soluble protein abundance relative to vehicle (solubility fold change) (ratio); higher = more soluble protein in presence of GTP
In short: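 Values are fold changes against the detergent-processed vehicle, based on vsn-normalised intensities. Jurkat crude lysate was treated at eight concentrations from 0.1 to 10 mM (10 min at room temperature, then 3 min at 37 °C), solubilised with 0.8% NP40 and benzonase, ultracentrifuged and analysed by TMT-labelled LC-MS/MS over three independent experiments.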

| Target | NP40-soluble protein abundance (concentration: 0.1mM) | NP40-soluble protein abundance (concentration: 0.5mM) | NP40-soluble protein abundance (concentration: 1mM) | NP40-soluble protein abundance (concentration: 2mM) | NP40-soluble protein abundance (concentration: 4mM) | NP40-soluble protein abundance (concentration: 6mM) | NP40-soluble protein abundance (concentration: 8mM) | NP40-soluble protein abundance (concentration: 10mM) |
| --- | --- | --- | --- | --- | --- | --- | --- | --- |
| UniProt Q9Y237 and related entries | 0.844 ± 0.068 | 0.877 ± 0.036 | 0.896 ± 0.053 | 0.893 ± 0.044 | 0.834 ± 0.07 | 0.899 ± 0.072 | 0.878 ± 0.056 | 0.94 ± 0.017 |
| TRPV2 (UniProt Q9Y5S1) | 0.983 ± 0.033 | 1.01 ± 0.011 | 0.984 ± 0.025 | 0.995 ± 0.036 | 0.96 ± 0.036 | 0.982 ± 0.038 | 1.02 ± 0.059 | 0.967 ± 0.031 |
| UniProt Q9UMZ2 and related entries | 0.981 ± 0.047 | 0.965 ± 0.071 | 0.993 ± 0.065 | 0.911 ± 0.083 | 0.916 ± 0.077 | 0.918 ± 0.083 | 0.942 ± 0.026 | 0.918 ± 0.034 |
| PSAT1 (UniProt Q9Y617) | 0.959 ± 0.028 | 0.966 ± 0.012 | 0.893 ± 0.028 | 0.883 ± 0.027 | 0.858 ± 0.023 | 0.866 ± 0.024 | 0.837 ± 0.053 | 0.822 ± 0.052 |
| UniProt Q9Y2Y0 and related entries | 0.997 ± 0.066 | 0.999 ± 0.02 | 0.991 ± 0.034 | 1.01 ± 0.074 | 0.937 ± 0.13 | 0.982 ± 0.1 | 0.879 ± 0.08 | 0.856 ± 0.033 |
| SPIN1 (UniProt Q9Y657) | 0.968 ± 0.028 | 0.994 ± 0.067 | 0.972 ± 0.026 | 1 ± 0.061 | 1.03 ± 0.028 | 1.07 ± 0.055 | 1.09 ± 0.07 | 1.16 ± 0.051 |
| UFC1 (UniProt Q9Y3C8) | 0.8 ± 0.12 | 0.779 ± 0.082 | 0.952 ± 0.14 | 0.953 ± 0.083 | 0.908 ± 0.083 | 0.928 ± 0.078 | 0.819 ± 0.16 | 0.999 ± 0.17 |
| MTCH2 (UniProt Q9Y6C9) | 1.16 ± 0.1 | 1.16 ± 0.11 | 1.01 ± 0.095 | 0.981 ± 0.091 | 0.924 ± 0.08 | 0.934 ± 0.11 | 0.949 ± 0.11 | 0.913 ± 0.087 |
| UniProt Q9UPQ9 and related entries | 0.993 ± 0.052 | 0.969 ± 0.074 | 1.03 ± 0.071 | 1.02 ± 0.12 | 1.03 ± 0.077 | 1.07 ± 0.098 | 1.08 ± 0.04 | 1.11 ± 0.093 |
| UniProt Q9Y680 and related entries | 0.972 ± 0.026 | 0.946 ± 0.06 | 1.07 ± 0.047 | 1.02 ± 0.1 | 0.966 ± 0.047 | 0.957 ± 0.059 | 1.03 ± 0.076 | 0.977 ± 0.043 |
| BCS1L (UniProt Q9Y276) | 1.08 ± 0.095 | 1.1 ± 0.15 | 0.982 ± 0.086 | 1.13 ± 0.22 | 1 ± 0.16 | 1.01 ± 0.17 | 0.943 ± 0.054 | 0.966 ± 0.14 |
| UniProt Q9UQ13 and related entries | 0.989 ± 0.056 | 0.982 ± 0.034 | 0.973 ± 0.067 | 0.94 ± 0.092 | 0.93 ± 0.09 | 0.943 ± 0.068 | 0.965 ± 0.062 | 0.939 ± 0.11 |
| NOP16 (UniProt Q9Y3C1) | 0.9656 ± 0.0024 | 0.993 ± 0.14 | 1.01 ± 0.25 | 0.953 ± 0.19 | 0.987 ± 0.19 | 1.03 ± 0.25 | 0.972 ± 0.23 | 1.03 ± 0.075 |

Complete entries from above. Values in the order: NP40-soluble protein abundance (concentration: 0.1mM)	NP40-soluble protein abundance (concentration: 0.5mM)	NP40-soluble protein abundance (concentration: 1mM)	NP40-soluble protein abundance (concentration: 2mM)	NP40-soluble protein abundance (concentration: 4mM)	NP40-soluble protein abundance (concentration: 6mM)	NP40-soluble protein abundance (concentration: 8mM)	NP40-soluble protein abundance (concentration: 10mM)
UniProt Q9Y237 and related entries as listed: 0.844 ± 0.068	0.877 ± 0.036	0.896 ± 0.053	0.893 ± 0.044	0.834 ± 0.07	0.899 ± 0.072	0.878 ± 0.056	0.94 ± 0.017
UniProt Q9UMZ2 and related entries as listed: 0.981 ± 0.047	0.965 ± 0.071	0.993 ± 0.065	0.911 ± 0.083	0.916 ± 0.077	0.918 ± 0.083	0.942 ± 0.026	0.918 ± 0.034
